Record: PubChem BioAssay AID1224830 (NIAID, 2016)
In all, the deposit lists about 18,000 reagents; below is an unselected part. In the full data, about 2,900 (16%) are marked active. 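Calls are made per well; low scores hint the gene aids the LPS response, high scores that it dampens it.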 Unmarked entries are inactive. Repeated entries: four replicate wells of each siRNA pool.

Aim: 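Genes whose knock-down alters the TNF-alpha reporter response to LPS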 (primary screen)
System: human THP-1 monocytic leukaemia cells, TNF dual-luciferase reporter clone, PMA-differentiated to macrophage-like cells
Knock-down reagent: siRNA pool against human genes, 50 nM
Timing: LPS for 4 h, given about 3 days after siRNA transfection
Conditions: bacterial LPS (TLR4 ligand), 10 ng/ml
Read-out: 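TNF firefly reporter luminescence divided by renilla, normalised to the plate median, then turned into a robust z-score for each replicate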
Reading the numbers: TNF reporter robust z-score: higher = stronger TNF reporter response to LPS
Rule for the call: 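a well is active when its z-score exceeds 2.8 or falls below -1.5; control wells carry no call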

The opening 2 entries, ahead of the listing:
target	TNF reporter robust z-score
RMP64 (GeneID 25871)	0.3
RMP64 (GeneID 25871)	-0.71

Results, from the start:
target	TNF reporter robust z-score
RMP64 (GeneID 25871)	0.3
RMP64 (GeneID 25871)	-0.71
RMP64 (GeneID 25871)	0.49
RMP64 (GeneID 25871)	0.57
BLOC1S2 (GeneID 282991)	-0.9
BLOC1S2 (GeneID 282991)	-0.33
BLOC1S2 (GeneID 282991)	-0.22
BLOC1S2 (GeneID 282991)	0.19
ADRA2B (GeneID 151)	-0.38
ADRA2B (GeneID 151)	-0.74
ADRA2B (GeneID 151)	-1.26
ADRA2B (GeneID 151)	0.21
DOK3 (GeneID 79930)	-0.74
DOK3 (GeneID 79930)	-0.83
DOK3 (GeneID 79930)	-0.91
DOK3 (GeneID 79930)	-0.45
DYNAP (GeneID 284254)	-1.04
DYNAP (GeneID 284254)	-0.7
DYNAP (GeneID 284254)	-0.41
DYNAP (GeneID 284254)	-0.21
CAD (GeneID 790)	-0.25
CAD (GeneID 790)	1.79
CAD (GeneID 790)	1.46
CAD (GeneID 790)	-0.78
EEF1AKMT2 (GeneID 399818)	0.65
EEF1AKMT2 (GeneID 399818)	2.02
EEF1AKMT2 (GeneID 399818)	2.64
EEF1AKMT2 (GeneID 399818)	1.32
NAA11 (GeneID 84779)	-0.99
NAA11 (GeneID 84779)	-0.21
NAA11 (GeneID 84779)	-0.8
NAA11 (GeneID 84779)	-1.02
IL12A (GeneID 3592)	-1.86 (active)
IL12A (GeneID 3592)	-1.32
IL12A (GeneID 3592)	-1.74 (active)
IL12A (GeneID 3592)	-1.44
MRPS25 (GeneID 64432)	-1.07
MRPS25 (GeneID 64432)	-1.31
MRPS25 (GeneID 64432)	-0.84
MRPS25 (GeneID 64432)	0.56
RNF122 (GeneID 79845)	0.87
RNF122 (GeneID 79845)	-1.22
RNF122 (GeneID 79845)	-1.53 (active)
RNF122 (GeneID 79845)	-0.06
TMEFF2 (GeneID 23671)	-1.66 (active)
TMEFF2 (GeneID 23671)	-0.78
TMEFF2 (GeneID 23671)	-1.16
TMEFF2 (GeneID 23671)	-1.39
PPM1D (GeneID 8493)	0.63
PPM1D (GeneID 8493)	-0.6
PPM1D (GeneID 8493)	-0.55
PPM1D (GeneID 8493)	-0.43
MYT1 (GeneID 4661)	-1.11
MYT1 (GeneID 4661)	-0.14
MYT1 (GeneID 4661)	-0.26
MYT1 (GeneID 4661)	0.19
TCN2 (GeneID 6948)	-0.78
TCN2 (GeneID 6948)	0.15
TCN2 (GeneID 6948)	-0.72
TCN2 (GeneID 6948)	-0.08
GYS2 (GeneID 2998)	-1.57 (active)
GYS2 (GeneID 2998)	-1.21
GYS2 (GeneID 2998)	-1.61 (active)
GYS2 (GeneID 2998)	-0.69
JAKMIP1 (GeneID 152789)	1.23
JAKMIP1 (GeneID 152789)	0.9
JAKMIP1 (GeneID 152789)	0.31
JAKMIP1 (GeneID 152789)	0.6
FASTKD4 (GeneID 9238)	0.56
FASTKD4 (GeneID 9238)	0.51
FASTKD4 (GeneID 9238)	1.24
FASTKD4 (GeneID 9238)	0.92
FYB2 (GeneID 199920)	0.69
FYB2 (GeneID 199920)	0.08
FYB2 (GeneID 199920)	0.97
FYB2 (GeneID 199920)	-0.47
DCAF15 (GeneID 90379)	0.76
DCAF15 (GeneID 90379)	2.3
DCAF15 (GeneID 90379)	1.35
DCAF15 (GeneID 90379)	0.32
ELP6 (GeneID 54859)	-0.03
ELP6 (GeneID 54859)	0.73
ELP6 (GeneID 54859)	-0.36
ELP6 (GeneID 54859)	0.66
OASL (GeneID 8638)	-2 (active)
OASL (GeneID 8638)	-1.76 (active)
OASL (GeneID 8638)	-1.83 (active)
OASL (GeneID 8638)	-1.71 (active)
NDUFA12 (GeneID 55967)	-0.62
NDUFA12 (GeneID 55967)	-0.93
NDUFA12 (GeneID 55967)	-0.68
NDUFA12 (GeneID 55967)	0.16
SPAG8 (GeneID 26206)	-0.5
SPAG8 (GeneID 26206)	-0.3
SPAG8 (GeneID 26206)	-0.48
ZBTB7A (GeneID 51341)	0.7
ZBTB7A (GeneID 51341)	0.9
ZBTB7A (GeneID 51341)	1.35
ZBTB7A (GeneID 51341)	1.14
NDUFA7 (GeneID 4701)	-0.44
NDUFA7 (GeneID 4701)	0.68
NDUFA7 (GeneID 4701)	0.12
NDUFA7 (GeneID 4701)	0.66
PCDHB6 (GeneID 56130)	-0.33
PCDHB6 (GeneID 56130)	-0.77
PCDHB6 (GeneID 56130)	0.08
PCDHB6 (GeneID 56130)	-0.85
MUC4 (GeneID 4585)	0.45
MUC4 (GeneID 4585)	0.63
MUC4 (GeneID 4585)	0.06
MUC4 (GeneID 4585)	-0.24
CIMIP2A (GeneID 401565)	0.81
CIMIP2A (GeneID 401565)	0.37
CIMIP2A (GeneID 401565)	-0.24
CIMIP2A (GeneID 401565)	-0.62
FOXO4 (GeneID 4303)	-0.62
FOXO4 (GeneID 4303)	0.67
FOXO4 (GeneID 4303)	-0.69
FOXO4 (GeneID 4303)	1.01
MEGF11 (GeneID 84465)	0.09
MEGF11 (GeneID 84465)	-0.63
MEGF11 (GeneID 84465)	0.17
MEGF11 (GeneID 84465)	-0.89
DIMT1 (GeneID 27292)	-1.27
DIMT1 (GeneID 27292)	-0.81
DIMT1 (GeneID 27292)	-1.12
DIMT1 (GeneID 27292)	1.18
ZNF608 (GeneID 57507)	0.47
ZNF608 (GeneID 57507)	0
ZNF608 (GeneID 57507)	0.86
ZNF608 (GeneID 57507)	0.3
IDUA (GeneID 3425)	0.6
IDUA (GeneID 3425)	0.43
IDUA (GeneID 3425)	0.93
IDUA (GeneID 3425)	1.23
HFM1 (GeneID 164045)	0.45
HFM1 (GeneID 164045)	0.04
HFM1 (GeneID 164045)	0.07
HFM1 (GeneID 164045)	0.09
NXF3 (GeneID 56000)	-0.71
NXF3 (GeneID 56000)	-0.65
NXF3 (GeneID 56000)	-0.64
NXF3 (GeneID 56000)	-0.53
